PubChem BioAssay AID493246 – Drosophila RNAi Screening Center – 2011
The deposit covers about 21,000 reagents; shown is an unselected part of those with a known target gene and a result. Over the whole deposit, 429 (2%) got an active call. 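Values are raw and not normalised between plates; calls rest on per-plate z-scores that were not deposited.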 Not given: the amount of reagent, the time to read-out.

Screen: 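Genes fly cells need to grow and stay alive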 (primary screen)
Cell system: Drosophila Kc and S2R+ cells
Reagent: long dsRNA against Drosophila genes
Measured: 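Cell number per well after knock-down, printed as raw plate values; calls were based on per-plate z-scores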
Reading the numbers: Kc cell number and S2R+ cell number: higher = more cells remaining
Active means: 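Counted as a hit if cell number falls by a z-score of at least 3 within its plate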

no.	gene knocked down	dsRNA	Kc cell number, rep 1	Kc cell number, rep 2	S2R+ cell number, rep 1	S2R+ cell number, rep 2	activity call
1	mRpL24	DRSC03113	9.63e5	1.49e6	4.24e5	1.51e5	inactive
2	CG17258	DRSC00495	1.72e6	1.73e6	1.22e6	1.46e6	inactive
3	RpL37-1	DRSC20149	1.38e6	1.51e6	9.07e5	1.01e6	inactive
4	RpL5	DRSC03801	1.13e6	1.18e6	6.63e5	3.19e5	inactive
5	CG5447	DRSC15801	1.90e6	2.13e6	1.07e6	1.16e6	inactive
6	CG6066	DRSC15959	1.57e6	1.58e6	1.10e6	1.14e6	inactive
7	CG7879	DRSC08600	1.41e6	1.51e6	1.12e6	1.11e6	inactive
8	SdhB	DRSC05018	1.41e6	1.53e6	1.06e6	1.12e6	inactive
9	CG10013	DRSC14175	1.46e6	1.53e6	1.23e6	1.30e6	inactive
10	Ance	DRSC01865	1.28e6	1.25e6	1.25e6	1.26e6	inactive
11	CG5131	DRSC02817	1.61e6	1.73e6	1.19e6	1.35e6	inactive
12	Gcna	DRSC18553	5.06e5		7.80e5		inactive
13	Cul6	DRSC09830	1.28e6	1.32e6	1.33e6	1.08e6	inactive
14	Socs16D	DRSC20087	1.47e6	1.48e6	9.83e5	1.09e6	inactive
15	CG14835	DRSC10205	1.50e6	1.39e6	1.19e6	1.26e6	inactive
16	CG14879	DRSC15003	1.25e6	1.26e6	1.16e6	1.26e6	inactive
17	CG8834	DRSC07283	1.62e6	1.63e6	1.42e6	1.43e6	inactive
18	CG10435	DRSC14246	1.51e6	1.61e6	1.04e6	1.15e6	inactive
19	IntS14	DRSC00668	1.25e6	1.37e6	9.97e5	9.82e5	inactive
20	DENR	DRSC20151	1.51e6	1.60e6	1.03e6	1.15e6	inactive
21	robls54B	DRSC05660	5.20e5		7.67e5		inactive
22	Adgf-E	DRSC05973	1.49e6	1.54e6	1.15e6	1.31e6	inactive
23	CG3698	DRSC11749	1.64e6	1.71e6	1.46e6	1.51e6	inactive
24	CG14818	DRSC18548	1.52e6	1.51e6	1.05e6	1.10e6	inactive
25	smog	DRSC00334	1.60e6	1.41e6	1.08e6	1.27e6	inactive
26	smog	DRSC00335	1.65e6	1.50e6	8.94e5	1.03e6	inactive
27	fon	DRSC02507	1.39e6	1.44e6	1.32e6	1.36e6	inactive
28	fs(1)Yb	DRSC18777	1.48e6	1.42e6	1.01e6	1.11e6	inactive
29	Trm7-32	DRSC15741	1.54e6	1.62e6	1.25e6	1.26e6	inactive
30	frma	DRSC18297	5.44e5		8.52e5		inactive
31	CG34193	DRSC05665	5.27e5		7.73e5		inactive
32	Wdr37	DRSC14500	1.51e6	1.61e6	1.31e6	1.39e6	inactive
33	CG18081	DRSC10294	1.41e6	1.41e6	1.19e6	1.32e6	inactive
34	CG3703	DRSC18172	1.56e6	1.58e6	1.10e6	1.15e6	inactive
35	CG3703	DRSC18173	1.51e6	1.53e6	1.04e6	1.14e6	inactive
36	CG3703	DRSC18643	1.41e6	1.43e6	1.02e6	1.11e6	inactive
37	CG11788	DRSC06084	1.60e6	1.66e6	1.22e6	1.40e6	inactive
38	msd1	DRSC08383	1.37e6	1.37e6	9.87e5	1.23e6	inactive
39	CG5157	DRSC10488	1.26e6	1.33e6	1.31e6	1.35e6	inactive
40	CG9626	DRSC16525	1.44e6	1.57e6	1.25e6	1.30e6	inactive
41	CG14647	DRSC12233	1.67e6	1.71e6	1.44e6	1.49e6	inactive
42	CG10887	DRSC14277	1.46e6	1.51e6	1.01e6	1.10e6	inactive
43	CG9673	DRSC20202	1.69e6	1.73e6	1.11e6	1.22e6	inactive
44	Drep1	DRSC07527	1.59e6	1.66e6	1.43e6	1.55e6	inactive
45	AOX3	DRSC15955	1.43e6	1.71e6	1.41e6	1.64e6	inactive
46	CG10077	DRSC09691	1.29e6	1.40e6	9.71e5	9.88e5	inactive
47	Acsx1R	DRSC14339	1.23e6	1.23e6	1.10e6	1.17e6	inactive
48	CG11696	DRSC19417	5.38e5		7.64e5		inactive
49	ACC	DRSC06059	8.56e5	1.02e6	7.23e5	8.98e5	active
50	ACC	DRSC07249	1.07e6	1.11e6	9.15e5	9.75e5	inactive
51	nesd	DRSC02099	1.24e6	1.43e6	1.30e6	1.09e6	inactive
52	Mco3	DRSC15926	1.34e6	1.48e6	9.81e5	1.02e6	inactive
53	HP1e	DRSC16379	1.66e6	1.72e6	1.22e6	1.35e6	inactive
54	CG3788	DRSC04418	1.58e6	1.65e6	1.39e6	1.51e6	inactive
55	Dnai2	DRSC10575	1.47e6	1.47e6	1.03e6	1.10e6	inactive
56	Sms	DRSC10408	1.26e6	1.37e6	1.30e6	1.33e6	inactive
57	CG14451	DRSC11708	1.56e6	1.61e6	1.28e6	1.42e6	inactive
58	CG6553	DRSC07002	1.83e6	1.88e6	1.31e6	1.49e6	inactive
59	Cpr11A	DRSC19861	1.63e6	1.46e6	1.15e6	1.18e6	inactive
60	CG8369	DRSC16413	1.49e6	1.58e6	1.37e6	1.48e6	inactive
61	Uch	DRSC00797	1.26e6	1.31e6	8.37e5	7.69e5	inactive
62	mi	DRSC04498	1.39e6	1.44e6	1.05e6	1.12e6	inactive
63	dah	DRSC20320	5.56e5		8.35e5		inactive
64	Ctr1A	DRSC18336	1.32e6	1.37e6	8.85e5	9.97e5	inactive
65	SerRS	DRSC00496	1.25e6	1.43e6	1.17e6	1.25e6	inactive
66	c-cup	DRSC00458	1.63e6	1.67e6	1.16e6	1.21e6	inactive
67	Dro	DRSC07406	1.58e6	1.53e6	1.17e6	1.37e6	inactive
68	Pis	DRSC20178	1.41e6	1.48e6	1.03e6	1.11e6	inactive
69	CG13427	DRSC06389	1.69e6	1.71e6	1.26e6	1.56e6	inactive
70	Ulp1	DRSC19339	1.69e6	1.63e6	1.10e6	1.27e6	inactive
71	CG8677	DRSC03107	1.36e6	1.45e6	1.06e6	1.18e6	inactive
72	CG11007	DRSC06023	1.31e6	1.37e6	1.14e6	1.19e6	inactive
73	CG32195	DRSC09533	1.36e6	1.45e6	1.14e6	1.32e6	inactive
74	Mpcp2	DRSC11226	1.42e6	1.46e6	1.11e6	1.28e6	inactive
75	IFT54	DRSC15469	1.46e6	1.45e6	1.03e6	1.18e6	inactive

Records above whose target name starts with A or a:
gene knocked down	dsRNA	Kc cell number, rep 1	Kc cell number, rep 2	S2R+ cell number, rep 1	S2R+ cell number, rep 2	activity call
Ance	DRSC01865	1.28e6	1.25e6	1.25e6	1.26e6	inactive
Adgf-E	DRSC05973	1.49e6	1.54e6	1.15e6	1.31e6	inactive
AOX3	DRSC15955	1.43e6	1.71e6	1.41e6	1.64e6	inactive
Acsx1R	DRSC14339	1.23e6	1.23e6	1.10e6	1.17e6	inactive
ACC	DRSC06059	8.56e5	1.02e6	7.23e5	8.98e5	active
ACC	DRSC07249	1.07e6	1.11e6	9.15e5	9.75e5	inactive
